# PubChem BioAssay AID504834 (National Center for Advancing Translational Sciences (NCATS), 2011)
# The whole screen tested about 320,000 compounds, of which about 22,000 (6.9%) were called active. This list was built around the results that the source calls inconclusive (neither active nor inactive); the mix of calls is not that of the screen. Calls follow the shape of the dose curve; as a rule, active = well fitted inhibition curve with a large enough effect; inconclusive = small, poorly fitted or top-dose-only effect, or another doubt; inactive = no such curve, though single readings can be large or run the other way. Where the call is inconclusive, the potency comes from a doubtful curve fit.
# Experiment: Primary qHTS for delayed death inhibitors of the malarial parasite plastid, 96 hour incubation
# Conditions: P. falciparum luciferase reporter growth; series mostly up to 28.7 µM; activity change, negative = inhibition: at the top concentration
# In short: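 96 h incubation, 37 C, 5% CO2, of luciferase-reporter P. falciparum-infected RBCs (2% hematocrit, 0.05% parasitemia final) with test compounds; endpoint luminescence.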
# % is scaled to controls: 0 for no effect and ±100 for the full control effect; potency is read from the fitted curve at half-maximal effect.
Compound,Potency,"activity change, negative = inhibition"
COc1ccccc1C(=O)Nc1c(C)cc(Br)cc1C,"inconclusive: 10.4 µM [inhibitor, single point]",–
O=C(CSc1ccccn1)N1CCN(S(=O)(=O)c2ccc(Cl)cc2)CC1,"inconclusive: 18.5 µM [inhibitor, single point]",–
O=C(CN1CCN(S(=O)(=O)c2ccc(F)c(F)c2)CC1)Nc1ccccc1C(=O)NC1CC1,–,inactive: -54.6%
CCN1CCN(C2=C(NS(=O)(=O)c3ccccc3)C(=O)c3ccccc3C2=O)CC1,active: 2.94 µM,–
Cc1cccc(NS(=O)(=O)c2ccc(C)c(C(=O)N(C)C)c2)c1,–,inactive: -0.386%
COc1ccccc1C(CC(=O)Nc1ccc(Cl)cc1)c1ccc(OC(C)C)cc1 (stereo not given),"inconclusive: 18.5 µM [inhibitor, single point]",–
Cc1n[nH]c(C)c1S(=O)(=O)NCCc1ccc(Cl)cc1,–,inactive: -1.69%
c1ccc(Cc2nc(-c3ccccn3)no2)cc1,–,inactive: 0.237% [at 5.75 µM]
Cc1cc(Nc2cnc3ccccc3n2)n(-c2ccccc2)n1,"inconclusive: 0.0828 µM [inhibitor, full curve, poor fit]",–
O=C(COC(=O)CCc1c[nH]c(=O)[nH]1)Nc1ccccc1,–,inactive: -3.6%
COCc1ccc(C(=O)NC2CCCc3c2cnn3-c2cc(C)cc(C)c2)s1 (stereo not given),active: 7.38 µM,–
CCCCn1c(=O)[nH]c(=O)c2c1nc(-c1ccc(-c3ccccc3Br)o1)n2CC,"inconclusive: 4.15 µM [inhibitor, partial curve, poor fit]",–
CC(=O)c1c(C)[nH]c(C(=O)Nc2cccc(C#N)c2)c1C,"inconclusive: 11.7 µM [inhibitor, partial curve]",–
CC(C)(C)C1CCC(C(=O)OCC(=O)Nc2ccc3[nH]c(=O)[nH]c3c2)CC1 (stereo not given),–,inactive: -8.08%
COc1ccccc1C(=O)NCC(c1ccco1)N1CCc2ccccc21 (stereo not given),active: 5.22 µM,–
COc1ccc(OC)c(CNC(=O)c2ccc(C)c(NC(=O)C3=C(C)OCCS3)c2)c1,"inconclusive: 18.5 µM [inhibitor, single point]",–
Cc1cccc(NC(=S)N2CCC(N(C)CC3CCCO3)CC2)c1 (stereo not given),"inconclusive: 0.0828 µM [inhibitor, full curve, poor fit]",–
O=C(N/N=C/c1coc2ccc(Cl)cc2c1=O)c1ccc(O)cc1,"inconclusive: 18.5 µM [inhibitor, single point]",–
CC(Sc1nnc(Nc2ccccc2)s1)C(=O)Nc1nc(-c2ccccc2)cs1 (stereo not given),"inconclusive: 1.17 µM [inhibitor, partial curve, poor fit]",–
O=C(N/N=C/c1cc2c(c([N+](=O)[O-])c1)OCO2)c1ccncc1,active: 2.33 µM,–
Nc1c2c(nc3ccc(Br)cc13)N(C1CCCCC1)CC2,active: 10.4 µM,–
Cc1ccc2[nH]c3c(N4CCc5ccccc5C4)ncnc3c2c1,"inconclusive: 1.17 µM [inhibitor, partial curve, poor fit]",–
CCOC(=O)c1cnc2c(Cl)cccc2c1NCCN(C)C,"inconclusive: 7.38 µM [inhibitor, partial curve, poor fit]",–
Cc1ccc(NC(=O)c2ccc(OCC3CCCO3)cc2)nc1 (stereo not given),–,inactive: 104%

Compound,Potency,"activity change, negative = inhibition"
Cc1nn(CC(=O)Nc2ccc3nc4n(c(=O)c3c2)CCCC4)c(C)c1[N+](=O)[O-],"inconclusive: 13.1 µM [inhibitor, single point]",–
O=C(CSc1nnnn1-c1ccccc1)N1CCCc2ccccc21,"inconclusive: 18.5 µM [inhibitor, single point]",–
O=C(Cn1cc2c(n1)CCCCC2)Nc1ccccc1Cl,"inconclusive: 13.1 µM [inhibitor, partial curve, poor fit]",–
Cc1ccc2c(c1)N(Cc1ccncc1)C(=O)C(C)O2 (stereo not given),–,inactive: 0.549%
O=C(Nc1cccc(C2=NCCN2)c1)Nc1cccc(C2=NCCN2)c1,active: 1.2 µM,–
COc1cc(OC)c2c(C)cc(=O)oc2c1C(CCN1CCN(c2ccccc2)CC1)c1ccc2c(c1)OCO2 (stereo not given),active: 2.08 µM,–
Clc1ccc(OCCn2ccnc2)c(Cl)c1,–,inactive: 19%
CCc1ccccc1S(=O)(=O)Cc1ccc(C(=O)NCCc2ccccc2)o1,"inconclusive: 0.37 µM [inhibitor, full curve, poor fit]",–
Cn1c(C(=O)NCCC2=CCCCC2)cc2c(=O)n3ccccc3nc21,active: 6.57 µM,–
Cc1ccc(-c2nc3ncccn3c2Nc2ccccc2C)o1,"inconclusive: 3.7 µM [inhibitor, partial curve, poor fit]",–
COc1ccc(S(=O)(=O)N2CCCCCC2)cc1C(=O)NCCc1ccc(F)cc1,"inconclusive: 2.33 µM [inhibitor, partial curve]",–
CCCn1nc(NC(=O)CC)c2cc3cccc(C)c3nc21,"inconclusive: 18.5 µM [inhibitor, single point]",–
CCCCCCC(=O)N/N=C/c1c(O)n(CCc2ccccc2)c(=O)[nH]c1=O,–,inactive: 9.24%
Cc1ccc2nc(C)c(CN3CCN(c4ccc([N+](=O)[O-])cc4Cl)CC3)n2c1,"inconclusive: 9.28 µM [inhibitor, single point]",–
COc1cc(OC)cc(C(=O)N/N=C/c2ccc(OC)c(COc3ccc4ccccc4c3)c2)c1,"inconclusive: 0.0657 µM [inhibitor, full curve, poor fit]",–
CCOc1cc(N2CCOCC2)c(OCC)cc1NC(=O)COC(=O)CCc1c[nH]c2ccccc12,"inconclusive: 18.5 µM [inhibitor, single point]",–
COCCCN(C(=S)NC(=O)C12CC3CC(CC(C3)C1)C2)c1c(N)n(Cc2ccccc2)c(=O)[nH]c1=O,"inconclusive: 13.1 µM [inhibitor, single point]",–
CCc1cc2c(=O)c(-c3cnn(-c4ccccc4)c3)coc2c(CN2CCOCC2)c1O,"inconclusive: 0.828 µM [inhibitor, full curve, poor fit]",–
Cc1nc2ccc(NC(=O)c3oc4ccc(F)cc4c3C)cc2s1,–,inactive: 16.2%
Cc1nc2cc(F)ccc2n1C1CCN(Cc2nnnn2CCc2ccccc2)CC1,"inconclusive: 13.1 µM [inhibitor, single point]",–
COCCn1c(N)c(NCc2ccccc2)c(=O)n(CC(=O)Nc2cc(C)ccc2C)c1=O,"inconclusive: 11.7 µM [inhibitor, single point]",–
CC(C)(C)c1ccc(Oc2ccc(NC(=O)c3cccs3)cn2)cc1,active: 13.1 µM,–
Cc1cccc(C)c1OC(=O)C(c1ccccc1)c1ccccc1,"inconclusive: 9.28 µM [inhibitor, single point]",–
CC(C)OC(=O)C1Cc2ccccc2CN1S(=O)(=O)c1cccs1 (stereo not given),"inconclusive: 13.1 µM [inhibitor, single point]",–

# Laid out differently: entries from further up
Compound	Potency	activity change, negative = inhibition
Cc1nn(CC(=O)Nc2ccc3nc4n(c(=O)c3c2)CCCC4)c(C)c1[N+](=O)[O-]	inconclusive: 13.1 µM [inhibitor, single point]	–
O=C(CSc1nnnn1-c1ccccc1)N1CCCc2ccccc21	inconclusive: 18.5 µM [inhibitor, single point]	–
O=C(Cn1cc2c(n1)CCCCC2)Nc1ccccc1Cl	inconclusive: 13.1 µM [inhibitor, partial curve, poor fit]	–
Cc1ccc2c(c1)N(Cc1ccncc1)C(=O)C(C)O2 (stereo not given)	–	inactive: 0.549%
O=C(Nc1cccc(C2=NCCN2)c1)Nc1cccc(C2=NCCN2)c1	active: 1.2 µM	–
COc1cc(OC)c2c(C)cc(=O)oc2c1C(CCN1CCN(c2ccccc2)CC1)c1ccc2c(c1)OCO2 (stereo not given)	active: 2.08 µM	–
Clc1ccc(OCCn2ccnc2)c(Cl)c1	–	inactive: 19%
CCc1ccccc1S(=O)(=O)Cc1ccc(C(=O)NCCc2ccccc2)o1	inconclusive: 0.37 µM [inhibitor, full curve, poor fit]	–
Cn1c(C(=O)NCCC2=CCCCC2)cc2c(=O)n3ccccc3nc21	active: 6.57 µM	–
Cc1ccc(-c2nc3ncccn3c2Nc2ccccc2C)o1	inconclusive: 3.7 µM [inhibitor, partial curve, poor fit]	–
COc1ccc(S(=O)(=O)N2CCCCCC2)cc1C(=O)NCCc1ccc(F)cc1	inconclusive: 2.33 µM [inhibitor, partial curve]	–
CCCn1nc(NC(=O)CC)c2cc3cccc(C)c3nc21	inconclusive: 18.5 µM [inhibitor, single point]	–
CCCCCCC(=O)N/N=C/c1c(O)n(CCc2ccccc2)c(=O)[nH]c1=O	–	inactive: 9.24%
Cc1ccc2nc(C)c(CN3CCN(c4ccc([N+](=O)[O-])cc4Cl)CC3)n2c1	inconclusive: 9.28 µM [inhibitor, single point]	–
COc1cc(OC)cc(C(=O)N/N=C/c2ccc(OC)c(COc3ccc4ccccc4c3)c2)c1	inconclusive: 0.0657 µM [inhibitor, full curve, poor fit]	–
CCOc1cc(N2CCOCC2)c(OCC)cc1NC(=O)COC(=O)CCc1c[nH]c2ccccc12	inconclusive: 18.5 µM [inhibitor, single point]	–
COCCCN(C(=S)NC(=O)C12CC3CC(CC(C3)C1)C2)c1c(N)n(Cc2ccccc2)c(=O)[nH]c1=O	inconclusive: 13.1 µM [inhibitor, single point]	–
CCc1cc2c(=O)c(-c3cnn(-c4ccccc4)c3)coc2c(CN2CCOCC2)c1O	inconclusive: 0.828 µM [inhibitor, full curve, poor fit]	–
Cc1nc2ccc(NC(=O)c3oc4ccc(F)cc4c3C)cc2s1	–	inactive: 16.2%
Cc1nc2cc(F)ccc2n1C1CCN(Cc2nnnn2CCc2ccccc2)CC1	inconclusive: 13.1 µM [inhibitor, single point]	–

# (continued)

Compound,Potency,"activity change, negative = inhibition"
Cc1cc(NC(=O)CSc2ncn[nH]2)no1,"inconclusive: 3.29 µM [inhibitor, full curve]",–
COc1ccc(NC(=S)N(CCC(C)C)C2CCN(C(C)C)CC2)cc1Cl,"inconclusive: 18.5 µM [inhibitor, single point]",–
Cc1cccc(C)c1NC(=O)CSc1nc(C)c(CC(=O)c2ccc(Br)cc2)c(C)c1C#N,"inconclusive: 2.33 µM [inhibitor, full curve, poor fit]",–
O=CCCCC=O,active: 12 µM,–
CCOP(=O)(OCC)C1(O)C(=O)Nc2ccccc21 (stereo not given),"inconclusive: 18.5 µM [inhibitor, single point]",–
O=C(NC(=S)NNC(=O)c1ccccc1O)c1ccco1,"inconclusive: 0.415 µM [inhibitor, partial curve, poor fit]",–
CCOc1ccc(OCCC(=O)N2CCN(S(=O)(=O)c3cccc(F)c3)CC2)cc1,"inconclusive: 18.5 µM [inhibitor, single point]",–
COc1ccc(OC)c(NC(=O)CSc2nnc(-c3ccncc3)s2)c1,"inconclusive: 0.131 µM [inhibitor, full curve, poor fit]",–
CCN1C(=O)/C(=C/c2ccc(C)s2)SC1=Nc1ccc(OC)cc1,"inconclusive: 0.0041 µM [inhibitor, full curve, poor fit]",–
CN1CCN(NC(=O)C2CC2)CC1,–,inactive: -32.7%
COc1cccc(NC(=O)N2CCCC(C(=O)NCc3ccc(F)cc3)C2)c1 (stereo not given),"inconclusive: 9.28 µM [inhibitor, single point]",–
COc1cccc(N/C(SCc2ccccc2Cl)=C(/C#N)C(=O)NCc2cccs2)c1,"inconclusive: 18.5 µM [inhibitor, single point]",–
COc1cccc(-c2noc(C3CCCN(C(=O)c4cccc(F)c4)C3)n2)c1 (stereo not given),"inconclusive: 13.1 µM [inhibitor, single point]",–
CC(=O)Nc1cccc(Oc2ncnc3scc(-c4ccc(C)cc4)c23)c1,"inconclusive: 10.4 µM [inhibitor, single point]",–
CSC1=NCCN1C(=O)c1ccc(C)cc1,–,inactive: 19.9%
COc1ccccc1Nc1nn2c(=O)c3ccc(C(=O)N4CCCCC4)cc3nc2s1,"inconclusive: 18.5 µM [inhibitor, single point]",–
Cc1ccccc1N/C(SCc1ccc(Cl)cc1)=C(/C#N)C(=O)NCc1ccco1,"inconclusive: 2.33 µM [inhibitor, single point]",–
O=C(c1ccc(-c2ccccc2)cc1)C1CCCN(C(=O)Cn2cncn2)C1 (stereo not given),"inconclusive: 18.5 µM [inhibitor, single point]",–
NS(=O)(=O)c1ccc(CNC(=S)NC2CC2)cc1,active: 2.08 µM,–
O=C(NCCCc1nc2ccccc2[nH]1)c1ccco1,active: 9.28 µM,–
CC1CCCC(C)N1C(=O)c1cc(-c2ccco2)on1 (stereo not given),–,inactive: 56.5%
CCc1noc(C)c1C(=O)N1CCCC(C(=O)c2cc(F)ccc2F)C1 (stereo not given),–,inactive: -5.61%
